Assay results published in article PMC9247460.
No constants are given. Whether binding was seen depends on the method and setting. Binding seen in cells or lysates may run through a third protein. Some results given as binding are weak or reduced against the parent protein; the word gives no strength.

The chains behind the UniProt entries cited, without tags or fusion partners. Where a name states a change or a piece, a line headed by the entry shows the natural chain unless it says otherwise.
UniProt P31946: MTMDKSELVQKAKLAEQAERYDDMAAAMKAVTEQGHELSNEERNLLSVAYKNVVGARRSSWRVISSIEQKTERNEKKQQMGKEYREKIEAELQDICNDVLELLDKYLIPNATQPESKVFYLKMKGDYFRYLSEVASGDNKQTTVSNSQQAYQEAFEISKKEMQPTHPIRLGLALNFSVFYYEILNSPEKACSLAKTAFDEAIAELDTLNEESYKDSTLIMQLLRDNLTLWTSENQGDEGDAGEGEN
UniProt Q09472: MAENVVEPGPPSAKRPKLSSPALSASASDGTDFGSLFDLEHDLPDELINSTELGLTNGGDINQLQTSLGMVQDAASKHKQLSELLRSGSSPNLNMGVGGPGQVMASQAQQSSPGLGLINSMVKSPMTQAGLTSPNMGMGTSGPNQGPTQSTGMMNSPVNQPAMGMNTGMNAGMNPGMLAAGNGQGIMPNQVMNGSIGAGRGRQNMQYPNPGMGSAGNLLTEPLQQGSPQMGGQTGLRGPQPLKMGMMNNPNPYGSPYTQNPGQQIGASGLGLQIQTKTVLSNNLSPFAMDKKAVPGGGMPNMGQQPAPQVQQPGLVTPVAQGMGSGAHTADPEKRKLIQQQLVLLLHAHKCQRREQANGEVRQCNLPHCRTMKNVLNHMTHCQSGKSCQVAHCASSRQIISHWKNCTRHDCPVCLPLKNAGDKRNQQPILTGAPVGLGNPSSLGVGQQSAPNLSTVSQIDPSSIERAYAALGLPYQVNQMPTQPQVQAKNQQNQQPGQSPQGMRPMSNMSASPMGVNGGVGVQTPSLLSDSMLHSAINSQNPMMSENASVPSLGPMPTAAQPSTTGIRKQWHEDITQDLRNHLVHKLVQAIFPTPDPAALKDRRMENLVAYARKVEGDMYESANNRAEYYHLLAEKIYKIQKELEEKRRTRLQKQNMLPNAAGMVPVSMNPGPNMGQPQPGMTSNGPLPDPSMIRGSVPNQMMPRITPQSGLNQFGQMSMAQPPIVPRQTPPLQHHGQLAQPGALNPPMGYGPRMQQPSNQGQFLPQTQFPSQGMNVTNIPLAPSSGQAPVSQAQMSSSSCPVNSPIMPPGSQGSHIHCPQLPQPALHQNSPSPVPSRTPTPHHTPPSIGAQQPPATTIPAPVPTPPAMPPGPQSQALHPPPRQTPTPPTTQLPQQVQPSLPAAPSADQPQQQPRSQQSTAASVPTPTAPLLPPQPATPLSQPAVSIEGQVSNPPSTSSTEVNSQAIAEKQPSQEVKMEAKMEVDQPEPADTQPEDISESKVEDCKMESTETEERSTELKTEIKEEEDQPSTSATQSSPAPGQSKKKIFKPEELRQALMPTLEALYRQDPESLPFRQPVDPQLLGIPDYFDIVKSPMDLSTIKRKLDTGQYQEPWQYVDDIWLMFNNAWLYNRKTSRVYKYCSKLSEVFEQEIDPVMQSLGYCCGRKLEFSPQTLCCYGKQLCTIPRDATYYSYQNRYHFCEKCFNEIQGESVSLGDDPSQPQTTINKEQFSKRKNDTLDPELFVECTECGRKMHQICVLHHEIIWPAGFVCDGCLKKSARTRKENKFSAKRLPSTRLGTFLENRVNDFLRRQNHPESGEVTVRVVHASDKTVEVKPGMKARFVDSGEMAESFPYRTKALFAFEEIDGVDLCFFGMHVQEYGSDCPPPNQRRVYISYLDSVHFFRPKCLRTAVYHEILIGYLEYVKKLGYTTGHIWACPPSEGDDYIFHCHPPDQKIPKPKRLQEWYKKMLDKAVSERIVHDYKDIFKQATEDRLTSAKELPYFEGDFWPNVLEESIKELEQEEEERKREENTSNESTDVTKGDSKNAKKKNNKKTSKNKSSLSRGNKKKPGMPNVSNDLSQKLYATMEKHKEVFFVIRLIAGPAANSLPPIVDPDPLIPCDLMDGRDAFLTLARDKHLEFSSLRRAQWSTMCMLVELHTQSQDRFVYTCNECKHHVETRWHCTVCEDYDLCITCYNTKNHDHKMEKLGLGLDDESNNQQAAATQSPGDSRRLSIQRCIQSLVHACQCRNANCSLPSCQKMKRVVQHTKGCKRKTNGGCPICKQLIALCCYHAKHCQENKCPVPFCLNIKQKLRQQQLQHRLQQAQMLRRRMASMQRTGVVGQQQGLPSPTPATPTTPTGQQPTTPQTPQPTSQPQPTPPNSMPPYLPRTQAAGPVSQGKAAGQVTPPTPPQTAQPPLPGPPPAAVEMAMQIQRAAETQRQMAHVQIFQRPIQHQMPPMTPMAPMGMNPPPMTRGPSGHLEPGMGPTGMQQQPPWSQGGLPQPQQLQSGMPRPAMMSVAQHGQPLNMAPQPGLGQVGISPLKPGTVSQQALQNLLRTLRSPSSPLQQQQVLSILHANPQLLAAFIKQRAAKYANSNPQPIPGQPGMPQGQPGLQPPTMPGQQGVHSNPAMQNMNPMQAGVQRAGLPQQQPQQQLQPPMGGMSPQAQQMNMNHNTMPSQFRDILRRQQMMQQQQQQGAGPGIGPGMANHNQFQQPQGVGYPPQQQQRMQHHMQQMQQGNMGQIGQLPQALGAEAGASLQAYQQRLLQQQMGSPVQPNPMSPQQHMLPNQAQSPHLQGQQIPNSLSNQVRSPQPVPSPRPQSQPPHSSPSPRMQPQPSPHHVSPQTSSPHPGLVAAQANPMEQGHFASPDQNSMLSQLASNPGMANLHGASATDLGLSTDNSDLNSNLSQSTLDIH

Biological target: 14-3-3β/α (YWHAB) (human (endogenous in U87MG)) (UniProt P31946)
Assay: co-IP; Co-IP of 14-3-3β/α followed by western blot for EP300; endogenous proteins; cell line not named for this panel

E1A binding protein p300 (EP300) (from UniProt Q09472 1-2414)
binding: binds
